Reference: patent publication US7655643B2 (AiCuris GmbH & Co. KG, priority 2003, dated 2010)

Tests used:
[1] = general procedure: solution-phase peptide synthesis; HATU / Hünig's base; EDC/DMAP pentafluorophenyl ester for macrocyclisation; details: late stage modification step
S. aureus 133 = test: Determination of the spontaneous resistance rates to S. aureus; assay type: cell-based; details: 48 h

With “N-{[(8S,11S,14S)-14-Amino-11-[(2R)-3-amino -2-hydroxypropyl]-5-chloro-17-hydroxy-10,13-dioxo-9,12-diazatricyclo[14.3.1.1^2,6]-henicosa-1(20),2(21),3,5,16,18-hexaen-8-yl]carbonyl}-L-serine di(hydrotrifluoroacetate)” as the compound, how does the step yield ([1]; di(hydrotrifluoroacetate)) read?
Its step yield is 11% of theory.

For `NCCNC(=O)[C@@H]1Cc2cc(ccc2F)-c2ccc(O)c(c2)C[C@H](N)C(=O)N[C@@H](C[C@@H](O)CN)C(=O)N1` [Example 12], which “spontaneous resistance rate S. aureus 133” value (S. aureus 133; 5× MIC) is on record?
Its value is 1.3 × 10^−10.

For “(8S,11S,14S)-14-Amino-11-[(2R)-3-amino-2-hydroxypropyl]-N-(2-amino-2-oxoethyl)-5-chloro-17-hydroxy-10,13-dioxo-9,12-diazatricyclo[14.3.1.1^2,6]henicosa-1(20),2(21),3,5,16,18-hexaene-8-carboxamide di(hydrotrifluoroacetate)”, which step yield ([1]; di(hydrotrifluoroacetate)) is on record?
The step yield was 29% of theory.

With “3-Amino-N-{[(8S,11S,14S)-14-amino-11-[(2R) -3-amino-2-hydroxypropyl]-5-chloro-17-hydroxy-10,13-dioxo-9,12-diazatricyclo-[14.3.1.1^2,6]henicosa-1(20),2(21),3,5,16,18-hexaen-8-yl]carbo-nyl}-L-alanine tri(hydrotrifluoroacetate)” as the compound, how does the step yield ([1]; tri(hydrotrifluoroacetate)) read?
The step yield was 8% of theory.

For “Methyl 3-amino-N-{[(8S,11S,14S)-14-amino-11-[(2R)-3-amino-2-hydroxypropyl]-5-chloro-17-hydroxy-10,13-dioxo-9,12-diazatricy-clo[14.3.1.1^2,6]henicosa-1(20),2(21),3,5,16.18-hexaen-8-yl]carbonyl}-L-alaninate tri(hydrotrifluoroacetate)”, which step yield ([1]; tri(hydrotrifluoroacetate)) is on record?
Its step yield is 43% of theory.

For `CN1C(=O)[C@H](CCCN)NC(=O)[C@@H](N)Cc2cc(ccc2O)-c2ccc(Cl)c(c2)C[C@H]1C(=O)NCCN(CCN)CCN` [Example 42, (8S,11S,14S)-14-Amino-11-(3-aminopropyl)-N-{2-[bis(2-aminoethyl)amino]ethyl}-5-chloro-17-hydroxy-9-methyl-10,13-dioxo-9,12-diazatricyclo[14.3.1.1^2,6]henicosa-1(20),2(21)3,5,16,18-hexaene-8-carboxamide penta(hydrotrifluoroacetate)], which “spontaneous resistance rate S. aureus 133” value (S. aureus 133; 5× MIC) is on record?
The value was 5.3 × 10^−10.

For `NC[C@H](O)C[C@@H]1NC(=O)[C@@H](N)Cc2cc(ccc2O)-c2ccc(O)c(c2)C[C@@H](C(=O)O)NC1=O` [Biphenomycin B, biphenomycin B, reference compound], which “spontaneous resistance rate S. aureus 133” value (S. aureus 133; 10× MIC) is on record?
Its value is 1.7 × 10^−6.
